Source: patent publication US7622551B2, “Leukocyte stimulating peptides” (POSCO, priority 2004, dated 2009)
Some of these results come from one statement about several compounds together. Some ranges recur; such a range may be that of the whole group of compounds.

System: human neutrophils
Test: Chemotaxis assay (modified Boyden chamber), neutrophils
Format: cell-based
Settings: FIG. 6A; for Maximal cellular migration-inducing activity relative to that induced by 1 μM of fMLF: human neutrophils
Experimental: FIGS. 6A and 6B show chemotactic effect of peptides. Assays were performed using a modified Boyden chamber assay, as described in the Examples. Isolated human neutrophils (A) or monocytes (B) (1×10^6 cells/ml in serum free RPMI) were added to the upper wells of a 96-well chemotaxis chamber and migration across a 3 μm pore size (5 μm for monocytes) polycarbonate membrane was assessed after 2 hrs incubation at 37° C. The numbers of migrated cells were determined by counting them in a high power field (400×). Results are presented as means±S.E. of three independent experiments each performed in duplicate.
Chemotaxis assays were performed using multiwell chambers (Neuroprobe Inc., Gaithersburg, Md.) (Bae et al. Blood. 2001. 97: 2854-2862). Briefly, prepared human monocytes were suspended in RPMI at a concentration of 1×10^6 cells/ml, and 25 μl of the suspension was then placed onto the upper well of a chamber separated by a 5 μm polyhydrocarbon filter (3 μm pores size not polyvinylpyrrolidone coated, as is needed for neutrophils) from peptides or N-formyl-methionyl-leucyl-phenylalanine (fMLF) in the lower well. After incubation for 2 hours (90 minutes for neutrophils) at 37° C., non-migrated cells were removed by scraping, and cells that migrated across the filter were dehydrated, fixed, and stained with hematoxylin (Sigma, St. Louis, Mo.). Stained cells were counted in five randomly chosen high power fields (HPF) (400×) (Bae et al. Blood. 2001. 97: 2854-2862).

## MKYYYM-NH2 [Peptide P24]
  Concentration range inducing migration of human neutrophils: 1 to 10 µM
  Maximal cellular migration-inducing activity relative to that induced by 1 μM of fMLF: more than 200%

## RKYYYM-NH2 [Peptide P18]
  Concentration range inducing migration of human neutrophils: 1 to 10 µM
  Maximal cellular migration-inducing activity relative to that induced by 1 μM of fMLF: more than 200%
